Test results: EP4803540A1 (FNCTBiotech Inc., dated 2026)
Results are given in words; binding and its absence hold for the method and conditions named. Some entries that bind do so weakly or less than the wild type.

Biological target: T1, human CSF3 protein (human), P09919
T1 chain: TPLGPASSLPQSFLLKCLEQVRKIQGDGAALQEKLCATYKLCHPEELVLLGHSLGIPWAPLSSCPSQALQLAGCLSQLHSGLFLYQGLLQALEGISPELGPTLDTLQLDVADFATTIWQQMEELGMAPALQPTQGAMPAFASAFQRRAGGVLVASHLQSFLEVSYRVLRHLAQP
Experiment: high-mass MALDI MS, 'cross-validation experiment' on the antigen alone
Conditions: remark: other sources report otherwise

binding: binds
B1: human CSF3 protein, P09919 31-207 (ligand)
chain: T1 chain
